{"sequences": {"note": "Amino acid sequences for entries named in this document (tags omitted). A change or cut given only in a name is not applied to a line headed by its entry.", "UniProt O95319": "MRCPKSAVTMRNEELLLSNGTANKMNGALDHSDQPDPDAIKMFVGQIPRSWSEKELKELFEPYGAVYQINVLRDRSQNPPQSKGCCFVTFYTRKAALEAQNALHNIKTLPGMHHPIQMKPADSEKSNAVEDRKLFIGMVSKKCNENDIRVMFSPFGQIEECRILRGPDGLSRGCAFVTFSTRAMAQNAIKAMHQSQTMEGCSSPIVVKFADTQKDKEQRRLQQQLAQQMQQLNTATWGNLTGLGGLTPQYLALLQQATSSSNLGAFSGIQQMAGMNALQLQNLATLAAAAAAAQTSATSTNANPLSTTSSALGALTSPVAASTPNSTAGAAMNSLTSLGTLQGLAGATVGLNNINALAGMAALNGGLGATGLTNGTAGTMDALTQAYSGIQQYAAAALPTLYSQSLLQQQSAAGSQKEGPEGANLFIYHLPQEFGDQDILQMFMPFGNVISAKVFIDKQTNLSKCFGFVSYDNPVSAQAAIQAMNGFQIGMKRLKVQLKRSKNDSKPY", "UniProt Q00534, whole entry": "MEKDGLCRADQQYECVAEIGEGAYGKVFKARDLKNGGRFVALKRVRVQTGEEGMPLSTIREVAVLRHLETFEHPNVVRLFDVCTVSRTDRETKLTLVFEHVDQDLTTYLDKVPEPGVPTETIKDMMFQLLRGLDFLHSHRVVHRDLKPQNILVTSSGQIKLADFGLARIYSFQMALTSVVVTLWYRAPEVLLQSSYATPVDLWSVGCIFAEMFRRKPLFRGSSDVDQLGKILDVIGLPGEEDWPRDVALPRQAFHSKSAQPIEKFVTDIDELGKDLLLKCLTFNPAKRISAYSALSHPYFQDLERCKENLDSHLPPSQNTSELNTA", "UniProt Q53EZ4": "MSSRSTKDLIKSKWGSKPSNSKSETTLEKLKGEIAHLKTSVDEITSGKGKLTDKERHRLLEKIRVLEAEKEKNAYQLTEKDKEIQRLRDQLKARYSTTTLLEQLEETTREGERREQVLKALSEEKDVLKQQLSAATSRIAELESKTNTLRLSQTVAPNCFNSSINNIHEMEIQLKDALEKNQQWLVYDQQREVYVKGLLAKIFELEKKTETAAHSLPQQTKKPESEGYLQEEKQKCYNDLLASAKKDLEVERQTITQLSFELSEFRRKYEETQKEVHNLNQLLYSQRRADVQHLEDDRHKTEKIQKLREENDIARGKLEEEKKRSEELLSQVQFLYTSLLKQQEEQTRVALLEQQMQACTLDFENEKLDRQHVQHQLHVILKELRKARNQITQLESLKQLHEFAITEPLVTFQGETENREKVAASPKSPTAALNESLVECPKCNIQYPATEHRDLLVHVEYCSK", "UniProt Q96HQ2": "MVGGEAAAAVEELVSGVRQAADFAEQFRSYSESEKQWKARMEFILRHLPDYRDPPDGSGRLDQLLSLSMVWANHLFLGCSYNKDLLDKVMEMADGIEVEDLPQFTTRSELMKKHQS", "UniProt P50991": "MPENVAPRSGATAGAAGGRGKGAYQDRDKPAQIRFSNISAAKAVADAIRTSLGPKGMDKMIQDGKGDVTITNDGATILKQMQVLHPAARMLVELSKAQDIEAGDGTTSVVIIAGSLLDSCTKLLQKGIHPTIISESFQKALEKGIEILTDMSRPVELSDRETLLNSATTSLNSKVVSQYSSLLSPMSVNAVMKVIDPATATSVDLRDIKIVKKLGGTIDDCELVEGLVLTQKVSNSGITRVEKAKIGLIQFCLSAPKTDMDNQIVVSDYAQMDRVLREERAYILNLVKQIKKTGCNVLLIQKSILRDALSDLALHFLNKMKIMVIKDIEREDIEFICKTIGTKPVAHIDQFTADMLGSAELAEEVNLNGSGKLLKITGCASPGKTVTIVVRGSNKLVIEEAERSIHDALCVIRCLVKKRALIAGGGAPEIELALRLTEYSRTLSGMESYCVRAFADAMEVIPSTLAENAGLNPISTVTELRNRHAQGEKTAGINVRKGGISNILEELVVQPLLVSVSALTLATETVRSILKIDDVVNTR", "UniProt Q9NYJ1, whole entry": "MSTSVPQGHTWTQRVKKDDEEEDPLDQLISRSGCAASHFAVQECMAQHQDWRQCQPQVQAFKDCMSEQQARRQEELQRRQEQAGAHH", "UniProt Q96FF9": "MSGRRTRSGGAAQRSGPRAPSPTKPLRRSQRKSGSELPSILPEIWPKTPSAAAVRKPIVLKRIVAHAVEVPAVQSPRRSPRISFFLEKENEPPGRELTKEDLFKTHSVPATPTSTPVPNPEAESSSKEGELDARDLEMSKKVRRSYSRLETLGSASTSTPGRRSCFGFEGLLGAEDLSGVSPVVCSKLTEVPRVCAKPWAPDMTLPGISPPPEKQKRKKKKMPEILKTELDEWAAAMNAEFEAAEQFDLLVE", "UniProt O95628": "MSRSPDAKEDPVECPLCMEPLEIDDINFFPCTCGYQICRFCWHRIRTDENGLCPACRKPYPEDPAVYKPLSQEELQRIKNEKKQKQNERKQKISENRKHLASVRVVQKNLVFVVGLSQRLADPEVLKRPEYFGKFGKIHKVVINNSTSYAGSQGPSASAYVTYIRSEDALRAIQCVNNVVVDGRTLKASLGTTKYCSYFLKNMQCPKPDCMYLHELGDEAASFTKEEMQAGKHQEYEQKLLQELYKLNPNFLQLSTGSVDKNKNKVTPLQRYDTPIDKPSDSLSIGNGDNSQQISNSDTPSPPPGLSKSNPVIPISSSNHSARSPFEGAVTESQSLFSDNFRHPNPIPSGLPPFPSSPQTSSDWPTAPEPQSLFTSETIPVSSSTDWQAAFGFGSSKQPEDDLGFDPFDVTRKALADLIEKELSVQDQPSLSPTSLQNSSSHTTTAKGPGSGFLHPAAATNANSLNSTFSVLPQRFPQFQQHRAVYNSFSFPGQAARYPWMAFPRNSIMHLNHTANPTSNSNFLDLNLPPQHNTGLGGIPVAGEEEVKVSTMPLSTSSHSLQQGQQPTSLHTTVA", "UniProt A6NKD9": "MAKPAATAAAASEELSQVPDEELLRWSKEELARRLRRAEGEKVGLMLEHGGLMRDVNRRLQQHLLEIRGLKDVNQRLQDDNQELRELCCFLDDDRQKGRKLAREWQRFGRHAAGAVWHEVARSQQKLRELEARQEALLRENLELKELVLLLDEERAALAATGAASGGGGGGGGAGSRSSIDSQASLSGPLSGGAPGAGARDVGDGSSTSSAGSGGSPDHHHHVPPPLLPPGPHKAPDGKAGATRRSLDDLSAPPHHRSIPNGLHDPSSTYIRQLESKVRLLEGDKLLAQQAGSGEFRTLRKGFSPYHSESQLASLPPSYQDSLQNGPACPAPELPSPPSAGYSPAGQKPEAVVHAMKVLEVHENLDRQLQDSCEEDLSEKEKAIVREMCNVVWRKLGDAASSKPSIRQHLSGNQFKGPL", "UniProt P83436": "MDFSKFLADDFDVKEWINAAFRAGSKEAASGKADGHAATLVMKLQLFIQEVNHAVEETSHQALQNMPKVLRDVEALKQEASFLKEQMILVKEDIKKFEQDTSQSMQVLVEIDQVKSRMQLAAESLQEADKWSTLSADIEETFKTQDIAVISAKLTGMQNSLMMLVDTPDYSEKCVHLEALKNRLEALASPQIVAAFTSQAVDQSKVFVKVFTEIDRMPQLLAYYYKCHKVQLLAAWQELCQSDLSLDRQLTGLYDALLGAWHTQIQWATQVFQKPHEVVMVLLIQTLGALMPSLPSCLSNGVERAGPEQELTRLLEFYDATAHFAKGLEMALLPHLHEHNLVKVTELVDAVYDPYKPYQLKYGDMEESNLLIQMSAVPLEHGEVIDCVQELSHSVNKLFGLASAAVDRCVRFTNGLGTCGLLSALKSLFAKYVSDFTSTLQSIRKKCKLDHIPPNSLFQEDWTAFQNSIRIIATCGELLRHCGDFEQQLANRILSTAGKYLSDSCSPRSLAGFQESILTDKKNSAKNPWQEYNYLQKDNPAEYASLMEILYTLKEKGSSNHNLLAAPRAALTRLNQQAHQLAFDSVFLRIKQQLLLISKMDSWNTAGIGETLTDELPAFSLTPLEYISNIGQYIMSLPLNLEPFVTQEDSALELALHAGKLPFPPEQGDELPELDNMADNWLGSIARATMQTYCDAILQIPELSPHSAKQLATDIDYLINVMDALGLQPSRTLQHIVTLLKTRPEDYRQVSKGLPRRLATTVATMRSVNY", "UniProt Q9UPN4": "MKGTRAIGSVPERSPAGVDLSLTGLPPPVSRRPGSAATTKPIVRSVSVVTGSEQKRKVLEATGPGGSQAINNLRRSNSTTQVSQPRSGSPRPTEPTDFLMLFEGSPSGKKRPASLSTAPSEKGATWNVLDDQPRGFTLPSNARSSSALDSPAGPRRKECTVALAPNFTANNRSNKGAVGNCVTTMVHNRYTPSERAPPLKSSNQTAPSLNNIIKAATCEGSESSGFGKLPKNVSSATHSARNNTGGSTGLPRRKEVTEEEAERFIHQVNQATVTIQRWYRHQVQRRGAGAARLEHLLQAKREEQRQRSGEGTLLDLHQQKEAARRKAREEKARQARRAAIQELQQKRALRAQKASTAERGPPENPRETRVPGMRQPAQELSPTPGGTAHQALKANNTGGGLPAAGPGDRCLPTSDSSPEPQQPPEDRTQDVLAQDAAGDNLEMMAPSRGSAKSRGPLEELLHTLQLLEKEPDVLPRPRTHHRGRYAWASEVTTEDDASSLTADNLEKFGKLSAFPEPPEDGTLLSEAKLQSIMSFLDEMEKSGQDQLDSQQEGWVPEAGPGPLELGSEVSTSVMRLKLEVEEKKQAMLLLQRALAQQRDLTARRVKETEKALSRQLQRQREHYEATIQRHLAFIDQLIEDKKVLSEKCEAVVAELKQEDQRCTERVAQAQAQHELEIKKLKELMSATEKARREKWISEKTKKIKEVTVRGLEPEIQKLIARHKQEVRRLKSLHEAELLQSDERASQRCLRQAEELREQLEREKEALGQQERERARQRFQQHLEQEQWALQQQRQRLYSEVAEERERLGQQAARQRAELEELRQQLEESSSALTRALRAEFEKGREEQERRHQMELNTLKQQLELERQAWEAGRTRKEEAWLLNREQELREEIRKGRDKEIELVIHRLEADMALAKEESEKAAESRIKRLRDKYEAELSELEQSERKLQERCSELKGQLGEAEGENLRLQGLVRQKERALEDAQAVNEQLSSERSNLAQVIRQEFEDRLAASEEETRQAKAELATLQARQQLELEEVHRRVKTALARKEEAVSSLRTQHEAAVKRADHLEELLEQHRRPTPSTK", "UniProt P54105": "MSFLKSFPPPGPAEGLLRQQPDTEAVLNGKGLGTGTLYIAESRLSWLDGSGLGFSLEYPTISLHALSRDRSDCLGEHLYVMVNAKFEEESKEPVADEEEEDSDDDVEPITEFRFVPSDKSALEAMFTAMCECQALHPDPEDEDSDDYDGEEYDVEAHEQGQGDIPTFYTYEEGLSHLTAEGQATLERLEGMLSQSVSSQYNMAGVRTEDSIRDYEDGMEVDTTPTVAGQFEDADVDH", "UniProt Q9Y6A4": "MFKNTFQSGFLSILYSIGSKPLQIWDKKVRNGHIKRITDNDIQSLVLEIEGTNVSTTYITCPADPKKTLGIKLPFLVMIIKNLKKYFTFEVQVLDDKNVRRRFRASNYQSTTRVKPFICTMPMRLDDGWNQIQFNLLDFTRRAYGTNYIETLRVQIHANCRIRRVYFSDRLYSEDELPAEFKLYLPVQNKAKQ", "UniProt P35606": "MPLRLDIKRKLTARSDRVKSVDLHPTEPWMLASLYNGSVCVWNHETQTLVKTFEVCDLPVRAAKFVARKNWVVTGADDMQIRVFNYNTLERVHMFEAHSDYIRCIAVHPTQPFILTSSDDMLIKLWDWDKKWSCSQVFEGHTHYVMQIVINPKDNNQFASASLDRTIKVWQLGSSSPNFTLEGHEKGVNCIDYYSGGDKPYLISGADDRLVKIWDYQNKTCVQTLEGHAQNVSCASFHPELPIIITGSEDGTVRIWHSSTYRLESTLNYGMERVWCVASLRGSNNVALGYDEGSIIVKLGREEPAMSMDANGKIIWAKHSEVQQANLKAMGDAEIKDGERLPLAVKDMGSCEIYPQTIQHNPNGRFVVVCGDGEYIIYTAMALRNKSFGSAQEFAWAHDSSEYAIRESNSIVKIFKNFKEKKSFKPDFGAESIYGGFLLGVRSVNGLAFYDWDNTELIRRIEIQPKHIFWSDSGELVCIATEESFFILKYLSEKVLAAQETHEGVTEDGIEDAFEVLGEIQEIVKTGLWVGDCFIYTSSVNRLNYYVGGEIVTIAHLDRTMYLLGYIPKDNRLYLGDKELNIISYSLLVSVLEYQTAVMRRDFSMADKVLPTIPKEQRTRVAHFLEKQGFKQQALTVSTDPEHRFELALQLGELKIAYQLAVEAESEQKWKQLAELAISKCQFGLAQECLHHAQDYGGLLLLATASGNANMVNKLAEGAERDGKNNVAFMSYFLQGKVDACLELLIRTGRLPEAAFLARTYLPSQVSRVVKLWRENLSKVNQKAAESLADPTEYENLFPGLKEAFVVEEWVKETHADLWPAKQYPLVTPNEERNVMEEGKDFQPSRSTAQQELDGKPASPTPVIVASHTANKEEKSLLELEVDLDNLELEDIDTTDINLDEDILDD"}, "source": "the supplement of paper PMC7666118", "note": "The list shows a part of the results.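 How the source made its calls: active = dose-dependent thermal stabilisation significant by F-test of dose-response against flat model at 10% FDR; inactive = not significant.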", "data": [{"compound": "Nc1nc2c(ncn2[C@@H]2O[C@H](COP(=O)(O)OP(=O)(O)OP(=O)(O)O)[C@@H](O)[C@H]2O)c(=O)[nH]1", "assay": "dose-dependent thermal stabilisation call (2D-TPP, DLPTP, 10% FDR) (binary (1 = stabilised)); higher = stabilised by the compound", "settings": "system: Jurkat gel-filtered lysate; concentration range 1-500 µM", "values": [{"target": "CELF2 (UniProt O95319)", "dose-dependent thermal stabilisation call": "inactive: 0"}, {"target": "CBFA2T2 (UniProt O43439)", "dose-dependent thermal stabilisation call": "inactive: 0"}, {"target": "CDK6 (UniProt Q00534)", "dose-dependent thermal stabilisation call": "inactive: 0"}, {"target": "CEP55 (UniProt Q53EZ4)", "dose-dependent thermal stabilisation call": "inactive: 0"}, {"target": "CDKN2AIPNL (UniProt Q96HQ2)", "dose-dependent thermal stabilisation call": "inactive: 0"}, {"target": "CCT4 (UniProt P50991)", "dose-dependent thermal stabilisation call": "inactive: 0"}, {"target": "CCDC88B (UniProt A6NC98)", "dose-dependent thermal stabilisation call": "inactive: 0"}, {"target": "CNOT10 (UniProt Q9H9A5)", "dose-dependent thermal stabilisation call": "active: 1"}, {"target": "CDC37L1 (UniProt Q7L3B6)", "dose-dependent thermal stabilisation call": "inactive: 0"}, {"target": "COTL1 (UniProt Q14019)", "dose-dependent thermal stabilisation call": "inactive: 0"}, {"target": "CPNE1 (UniProt Q99829)", "dose-dependent thermal stabilisation call": "inactive: 0"}, {"target": "CFAP36 (UniProt Q96G28)", "dose-dependent thermal stabilisation call": "inactive: 0"}, {"target": "COA4 (UniProt Q9NYJ1)", "dose-dependent thermal stabilisation call": "inactive: 0"}, {"target": "CASP8AP2 (UniProt Q9UKL3)", "dose-dependent thermal stabilisation call": "inactive: 0"}, {"target": "CLINT1 (UniProt Q14677)", "dose-dependent thermal stabilisation call": "inactive: 0"}, {"target": "CDCA5 (UniProt Q96FF9)", "dose-dependent thermal stabilisation call": "inactive: 0"}, {"target": "COASY (UniProt Q13057)", "dose-dependent thermal stabilisation call": "active: 1"}, {"target": "CDC23 (UniProt Q9UJX2)", "dose-dependent thermal stabilisation call": "inactive: 0"}, {"target": "CD3EAP (UniProt O15446)", "dose-dependent thermal stabilisation call": "inactive: 0"}, {"target": "CNOT4 (UniProt O95628)", "dose-dependent thermal stabilisation call": "inactive: 0"}, {"target": "CCDC85C (UniProt A6NKD9)", "dose-dependent thermal stabilisation call": "inactive: 0"}, {"target": "COG7 (UniProt P83436)", "dose-dependent thermal stabilisation call": "inactive: 0"}, {"target": "CEP131 (UniProt Q9UPN4)", "dose-dependent thermal stabilisation call": "inactive: 0"}, {"target": "CLNS1A (UniProt P54105)", "dose-dependent thermal stabilisation call": "inactive: 0"}, {"target": "CPSF1 (UniProt Q10570)", "dose-dependent thermal stabilisation call": "inactive: 0"}, {"target": "CFAP20 (UniProt Q9Y6A4)", "dose-dependent thermal stabilisation call": "inactive: 0"}, {"target": "COPB2 (UniProt P35606)", "dose-dependent thermal stabilisation call": "inactive: 0"}]}]}
